# Assay results from the supplement of paper PMC3334620.
# In all, about 33,000 sequences were measured (“E-score (-0.5 to 0.5)”: median about -0.0059, highest 2% from about 0.26 on). Some of the results follow.
# Biological target: T1, Cin5 (UniProt P40917)
# T1 sequence: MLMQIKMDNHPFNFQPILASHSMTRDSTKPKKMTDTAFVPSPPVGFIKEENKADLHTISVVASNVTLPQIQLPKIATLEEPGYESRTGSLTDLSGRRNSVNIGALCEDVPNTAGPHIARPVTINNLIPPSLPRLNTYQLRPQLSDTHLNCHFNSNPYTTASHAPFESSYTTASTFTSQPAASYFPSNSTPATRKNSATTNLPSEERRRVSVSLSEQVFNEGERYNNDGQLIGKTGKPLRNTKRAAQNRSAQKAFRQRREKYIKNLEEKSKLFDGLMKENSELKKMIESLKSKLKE
# Test: PBM E-score (8-mer binding enrichment) (E-score (-0.5 to 0.5)); higher = stronger / more preferred TF binding
# Conditions: protein concentration: 100 nM; construct: GST-full length
# Outline: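 Using PURExpress in vitro transcription/translation, GST-tagged yeast transcription factors were made in full-length or DNA-binding-domain form. These were applied at about 100-200 nM to double-stranded universal all-10-mer Agilent arrays, and bound protein was detected with fluorescent anti-GST. Scans were normalised with masliner before the Universal PBM Analysis Suite assigned E-scores to ungapped eight-base words pooled with their reverse complements.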
row,Sequence,PBM E-score
1,GGTCAACA,0.0999
2,CATTTTGC,0.176
3,CATCAACC,0.106
4,AACCAGCG,-0.0946
5,AGGGATAC,-0.0905
6,CTCAATAC,0.162
7,GTTCATGA,0.143
8,AGCGCATG,0.029
9,CATTAGCG,0.02
10,ATGCTCAG,0.0984
11,AGCAGAAA,0.122
12,AGAGATGA,0.0149
13,GATTCCTA,-0.0731
14,AACCCAAC,0.17
15,ACTAGAAA,0.00187
16,TAGTCCCA,-0.0797
17,ATGAAGCA,0.0283
18,ACTTTGAC,0.0383
19,ATTGCGTA,0.287
20,AAGTGGCC,-0.0504
21,AAGTACTA,0.201
22,AATGACGT,0.116
23,ATAGCTAT,-0.0552
24,CATCCGCG,0.109
25,TGATCCAA,0.0932

row,Sequence,PBM E-score
1,ACTATACA,0.0855
2,CGAGGGTA,-0.151
3,TAATATGA,0.262
4,CGTAATGA,0.222
5,ATAAGGAT,0.223
6,ACAGCTTA,0.195
7,CTTGAAGA,-0.124
8,GCTGGTAA,-0.08
9,CGGCATCA,0.00938
10,CTCGAGAA,-0.0673
11,GTAAAACA,0.126
12,AGTAGTTA,0.14
13,AGTCGGAT,0.041
14,CGCTATGA,0.0716
15,ATGCTAGG,-0.031
16,CGGCGTCC,-0.0903
17,AGTCGCCC,-0.172
18,ACCGCTAC,-0.0553
19,CGAGCCCA,-0.0279
20,AAGTCATT,0.0384
21,CAATGAGC,-0.00644
22,TATAAAAA,0.176
23,AGAGGTAG,-0.0342
24,ATGCATGA,0.202
25,CTAGACTC,-0.256

row,Sequence,PBM E-score
1,AAGCCTAA,-0.037
2,ATACCGTC,0.141
3,CAATTGTG,0.098
4,AAGTCTCC,-0.161
5,CATGAGCA,-0.079
6,CGACTACG,-0.122
7,CTGATACA,-0.0853
8,CGCAGATC,-0.242
9,AAACTCAT,0.205
10,AGCCACAC,0.0698
11,TAAACTCA,0.18
12,CGGCGCCG,0.187
13,CGAGTCAA,-0.0176
14,AGACATGC,-0.279
15,AACTCTCC,-0.107
16,CGAAACAG,0.0646
17,TGCGTGAA,0.00272
18,GCTACCAC,-0.0775
19,AGGTGCAT,-0.108
20,CAGCTGTC,0.0733
21,AACACCGA,0.0411
22,AAGGGGTA,-0.169
23,GCATCACA,-0.0285
24,GTCTTGCA,-0.00202
25,AGCTCGCC,0.00272

# Not a retest: entries from further up.
row,Sequence,PBM E-score
13,CGAGTCAA,-0.0176
14,AGACATGC,-0.279
15,AACTCTCC,-0.107
16,CGAAACAG,0.0646
17,TGCGTGAA,0.00272
18,GCTACCAC,-0.0775
19,AGGTGCAT,-0.108

# Later entries

row,Sequence,PBM E-score
1,AATCTACT,0.126
2,GCATCGAA,-0.11
3,CTGCGGGA,-0.235
4,ATTCGTGG,0.0484
5,GCCTACAC,-0.137
6,AGACCGTG,-0.179
7,ACGTGAGC,0.0359
8,ACCCAGGG,-0.265
9,TAACATCA,0.124
10,GAATCCGC,-0.105
11,TAGGACGA,0.0128
12,CCGACCGC,-0.184
13,GTCTGACA,0.0182
14,ACGCGTCA,-0.0129
15,CAAACAAC,0.195
16,ATAAACCC,0.138
17,ACTTCTGA,0.0835
18,GTAAGCTA,0.36
19,ACTACCTC,-0.0509
20,ACGACCTG,-0.194
21,CCCACACA,-0.0121
22,TAAGCCGA,0.142
23,AAGTGAGC,-0.0453
24,GGGGATGA,0.0252
25,ACTTACCC,0.0873

row,Sequence,PBM E-score
1,AAGAATCG,0.192
2,GACAACGC,0.0121
3,CCTGATGA,0.107
4,ACTTCGTA,0.0293
5,AGCGTCAG,-0.124
6,CTCTTTGA,-0.124
7,ACCTCGCG,0.0457
8,ATCAATTG,0.232
9,GCCACCCA,-0.0925
10,ATGAAGGA,0.115
11,AACTCCTT,0.0828
12,GAGTCATC,0.053
13,CTGGATGC,-0.224
14,CCGTTGCA,-0.0494
15,GTTATGAA,0.159
16,CAATTGAA,-0.0404
17,ACGTGCAG,-0.137
18,ACCTACCG,-0.058
19,CGCTGAAG,-0.0582
20,AAGCTACT,0.0722
21,AGAGTCCA,0.126
22,ATTCGGTG,0.097
23,CTACCGGC,-0.183
24,ACCTTGCG,0.0534
25,CAAAGAAA,0.0585

row,Sequence,PBM E-score
1,TTCCGGAA,0.248
2,GACTGACA,0.0763
3,GACTCTCC,-0.189
4,AAATCCGT,0.0966
5,GACAGAAC,0.113
6,ATAACCAT,0.0547
7,CTGCAAGA,0.0859
8,ACCCCATG,0.184
9,CGTGCTCC,-0.111
10,GCTCCATA,-0.0548
11,GGGAGTCA,-0.169
12,ATTATCGG,-0.0594
13,ACCCCGGG,-0.158
14,ACTGTACG,0.0324
15,CAAGCCAG,-0.0284
16,AGCCTATC,-0.0288
17,CAAATGGA,-0.0888
18,CGAGCCAG,-0.103
19,CCGTACAA,0.00202
20,ACACTGGT,-0.0563
21,ATAACGTG,0.0267
22,AATCCACC,0.0897
23,ACAGTTTG,0.0772
24,CAGTTGCG,0.169
25,AAGCTAAA,0.0606

row,Sequence,PBM E-score
1,AGCGGGCA,-0.253
2,ATTTTGAG,0.0727
3,CGGTCACC,-0.331
4,TAAGTAAA,0.109
5,AGGAAATG,0.0125
6,AACAGCTC,-0.117
7,GCGCCCCA,-0.0877
8,AACCGCCT,0.0325
9,AGCAGGTG,0.126
10,ACGATTAT,0.274
11,ATATGAAG,0.00647
12,CACTAGCC,-0.0133
13,ATGTGCAA,0.035
14,CACAAAAA,0.177
15,ATGTCGCC,0.00761
16,AAAGTTAG,0.217
17,CATACCAG,-0.082
18,GCTGGTTA,-0.0216
19,CGCATGGC,-0.0651
20,GAAAGACA,0.158
21,CGGCAATC,-0.068
22,GATGACGC,0.0635
